≈ marks a conversion by molar mass, not a printed value.
Test system: strain BIF-1
Experiment: Antibiotic resistance profile (minimum inhibitory concentration)
Format: cell-based, Bifidobacterium animalis subsp. lactis
Conditions: Bifidobacterium animalis, BIF1; read-out: CMI (minimum inhibitory concentration of antibiotics)
Experimental: Specifically, the production of unwanted metabolites was evaluated: lactic acid isomer production (Table 9), bile-salt deconjugation (Table 10) and biogenic amine production (Table 11), and the antibiotic resistance profile (Table 12).

MIC: 0.25 mg/L (≈ 0.588 µM)
SMILES: CCC[C@@H]1C[C@@H](C(=O)N[C@@H]([C@H]2O[C@H](SC)[C@H](O)[C@@H](O)[C@H]2O)[C@H](C)Cl)N(C)C1 [Clindamycin]

Reference: US10946051B2, “Strain of Bifidobacterium animalis subsp. lactis CECT 8145 and use thereof for the treatment and/or prevention of excess weight and obesity and associated diseases” (priority 2013, dated 2021)
